The target of assay [1] is T1, VGluRδ2 (fusion between Venus and the glutamate receptor delta2, GluRδ2) (UniProt Q61625).
T1 sequence: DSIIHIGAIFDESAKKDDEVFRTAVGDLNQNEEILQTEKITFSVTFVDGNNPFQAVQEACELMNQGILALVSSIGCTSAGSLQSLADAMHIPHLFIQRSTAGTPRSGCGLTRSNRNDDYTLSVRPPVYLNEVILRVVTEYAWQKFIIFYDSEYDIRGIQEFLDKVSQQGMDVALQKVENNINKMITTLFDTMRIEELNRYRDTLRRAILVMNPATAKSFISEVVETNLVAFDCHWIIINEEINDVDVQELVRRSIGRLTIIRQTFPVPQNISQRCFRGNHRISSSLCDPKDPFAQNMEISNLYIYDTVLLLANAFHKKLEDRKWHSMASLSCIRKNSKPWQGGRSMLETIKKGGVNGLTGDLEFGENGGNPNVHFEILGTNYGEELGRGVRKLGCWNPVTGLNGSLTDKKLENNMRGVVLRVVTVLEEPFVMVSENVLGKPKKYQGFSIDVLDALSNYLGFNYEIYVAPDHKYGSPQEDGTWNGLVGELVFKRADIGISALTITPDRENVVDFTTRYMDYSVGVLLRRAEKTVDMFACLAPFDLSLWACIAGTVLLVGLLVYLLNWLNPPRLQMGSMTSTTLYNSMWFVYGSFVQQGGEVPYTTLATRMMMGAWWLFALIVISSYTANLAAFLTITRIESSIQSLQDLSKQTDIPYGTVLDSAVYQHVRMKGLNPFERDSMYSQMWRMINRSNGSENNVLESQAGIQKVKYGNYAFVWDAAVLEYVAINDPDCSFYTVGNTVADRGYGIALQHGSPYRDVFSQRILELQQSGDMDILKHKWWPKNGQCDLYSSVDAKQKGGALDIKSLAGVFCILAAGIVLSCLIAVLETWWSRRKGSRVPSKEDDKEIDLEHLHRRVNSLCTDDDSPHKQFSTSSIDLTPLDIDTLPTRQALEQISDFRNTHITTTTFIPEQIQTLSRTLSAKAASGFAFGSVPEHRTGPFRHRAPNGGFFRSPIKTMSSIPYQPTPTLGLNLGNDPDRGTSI
As to the kind of experiment: co-IP; anti-GFP antibody on Dynabeads M-270 epoxy beads; pooled excitatory synaptic gel-filtration fractions of a crude synaptosome fraction (P2) solubilised in 0.5% Triton X-100, from ten cerebella of Pcp2/VGluRδ2 or Pcp2/eGFP mice; 1 h at 4 °C; wash with 300 mM NaCl, 0.5% Triton X-100; western blot of the affinity-purified samples. (In general: A western blot detects proteins with antibodies after separation by electrophoresis.)

By UniProt entry, the sequences of proteins in these tests, tags left out. Residues count along the entry.
UniProt Q62277: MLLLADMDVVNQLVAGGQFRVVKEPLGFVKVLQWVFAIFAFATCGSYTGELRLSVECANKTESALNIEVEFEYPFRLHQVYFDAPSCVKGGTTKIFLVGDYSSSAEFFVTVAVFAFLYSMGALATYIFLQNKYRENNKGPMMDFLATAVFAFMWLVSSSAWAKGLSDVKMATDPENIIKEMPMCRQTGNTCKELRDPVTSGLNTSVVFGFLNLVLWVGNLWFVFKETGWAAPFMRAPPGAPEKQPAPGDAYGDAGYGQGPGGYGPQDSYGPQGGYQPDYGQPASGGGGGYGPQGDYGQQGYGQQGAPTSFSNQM
UniProt P16305, residues 20-453: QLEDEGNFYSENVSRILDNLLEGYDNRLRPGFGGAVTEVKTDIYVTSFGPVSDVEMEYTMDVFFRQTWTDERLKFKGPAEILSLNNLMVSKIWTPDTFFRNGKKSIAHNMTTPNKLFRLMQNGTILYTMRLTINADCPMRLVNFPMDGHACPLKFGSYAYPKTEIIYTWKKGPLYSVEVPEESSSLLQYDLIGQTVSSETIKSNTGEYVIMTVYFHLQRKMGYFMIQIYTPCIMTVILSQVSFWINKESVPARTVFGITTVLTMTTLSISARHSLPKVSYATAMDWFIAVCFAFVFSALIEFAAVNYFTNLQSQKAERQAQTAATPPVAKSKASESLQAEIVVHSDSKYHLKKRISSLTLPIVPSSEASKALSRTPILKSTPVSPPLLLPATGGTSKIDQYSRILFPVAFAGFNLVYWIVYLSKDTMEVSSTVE

Assay [2] deals with T2, VGluRδ2 (fusion between Venus and the glutamate receptor delta2, GluRδ2), Q61625.
T2 chain: T1 sequence
The assay is described as above. As to conditions: remark: other sources report otherwise.

Assay [3] concerns the target T2, VGluRδ2 (fusion between Venus and the …). As to the kind of experiment: co-IP; affinity purification with an anti-GFP antibody from 1% Triton X-100 cerebellar extracts of wild-type, Pcp2/VGluRδ2 and Pcp2/eGFP mice; immunoblot with anti-GFP and anti-GluRδ2 antibodies. As to conditions: remark: other sources report otherwise.

These are yes or no findings as the source states them, for the method shown. Binding seen in cells or lysates may run through a third protein. Some binding calls cover weakened binding; strength is not graded here. Tags and fused reporters may be left off the sequences shown.

As for synapsin I (from UniProt O88935 1-706), in assay [1], the binding entry is listed as “no binding”. As for “synaptophysin (from UniProt Q62277 1-314)”, the binding result in assay [1] was “no binding”.

As for “GABA(A) receptor α6 (from UniProt P16305 20-453)”, the binding entry in assay [1] was “no binding”.

B1: glutamate receptor delta2, GluRδ2 (endogenous), Q61625 24-1007 (receptor)
chain: T1 sequence
With B1, the binding result in assay [2] and in assay [3] was “binds” throughout.

B2: gephyrin (protein, UniProt Q8BUV3 1-769)
chain: MATEGMILTNHDHQIRVGVLTVSDSCFRNLAEDRSGINLKDLVQDPSLLGGTISAYKIVPDEIEEIKETLIDWCDEKELNLILTTGGTGFAPRDVTPEATKEVIEREAPGMALAMLMGSLNVTPLGMLSRPVCGIRGKTLIINLPGSKKGSQECFQFILPALPHAIDLLRDAIVKVKEVHDELEDLPSPPPPLSPPPTTSPHKQTEDKGVQCEEEEEEKKDSGVASTEDSSSSHITAAALAAKIPDSIISRGVQVLPRDTASLSTTPSESPRAQATSRLSTASCPTPKQIRRPDESKGVASRVGSLKARLPSCSSTYSVSEVQSRCSSKENILRASHSAVDITKVARRHRMSPFPLTSMDKAFITVLEMTPVLGTEIINYRDGMGRVLAQDVYAKDNLPPFPASVKDGYAVRAADGPGDRFIIGESQAGEQPTQTVMPGQVMRVTTGAPIPCGADAVVQVEDTELIRESDDGTEELEVRILVQARPGQDIRPIGHDIKRGECVLAKGTHMGPSEIGLLATVGVTEVEVNKFPVVAVMSTGNELLNPEDDLLPGKIRDSNRSTLLATIQEHGYPTINLGIVGDNPDDLLNALNEGISRADVIITSGGVSMGEKDYLKQVLDIDLHAQIHFGRVFMKPGLPTTFATLDIDGVRKIIFALPGNPVSAVVTCNLFVVPALRKMQGILDPRPTIIKARLSCDVKLDPRPEYHRCILTWHHQEPLPWAQSTGNQMSSRLMSMRSANGLLMLPPKTEQYVELHKGEVVDVMVIGRL
On to B2, for which the binding result in assay [1] is “no binding”.
